Some entries share one result that the patent states for a list of compounds.
What was measured:
[1] = test system: mitochondria prepared from rat livers; assay: Mitochondrial Permeability Transition: Ca2+-induced swelling of mitochondria; format: biochemical; conditions: swelling induced by 150 micro molar Ca2+, compound added 5 minutes before, scattering at 535-540 nm; read-out: EC50, mitochondrial swelling with and without compound
cyclophilin D = cyclophilin D (Homo sapiens, UniProt P30405); assay: Cyclophilin binding competitive ELISA (cyclophilin D); conditions: human recombinant cyclophilin, read-out: EC50, concentration required to achieve 50% inhibition, against cyclophilin D
Experimental: (§1) The cyclophilin inhibition binding of compounds disclosed herein is determined using a competitive ELISA adapted from the methods described by Quesniaux et al. (Eur. J. Immunol., 1987, 17:1359-1365). Activated ester of succinyl spacers bound to D-Lys^8-cyclosporine A (D-Lys^8-Cs) are coupled to bovine serum albumin (BSA) through D-lysyl residue in position 8. BSA is dissolved in 0.1 M borate buffer, pH 9.0 (4 mg in 1.4 ml). A hundredfold molar excess of D-Lys^8-Cs dissolved in dimethyl formamide (0.6 ml) is added drop wise to the BSA under vigorous stirring.
(§2) Microtiter Plates are coated with D-Lys^8-Cs-BSA conjugate (2 μg/ml in PBS for 24 hours at 4° C.). Plates are washed with Tween®/PBS and with PBS alone. To block nonspecific binding, 2% BSA/PBS (pH 7.4) is added to the wells and allowed to incubate for 2 hours at 37° C. A five-fold dilution series of the compound to be tested is made in ethanol in a separate microtiter plate. The starting concentration is 0.1 mg/mL for assays with human recombinant cyclophilin. 198 μL of 0.1 μg/mL cyclophilin solution is added to the microtiter immediately followed by 2 μL of diluted cyclosporine A (used as a reference compound) or the compound of the invention. The reaction between coated BSA-Cs conjugate, free cyclosporine A and cyclophilin is allowed to equilibrate overnight at 4° C. Cyclophilin is detected with anti-cyclophilin rabbit antiserum diluted in 1% BSA containing PBS and incubates overnight at 4° C. Plates are washed as described above. Bound rabbit antibodies are then detected by goat anti-rabbit IgG conjugated to alkaline phosphatase diluted in 1% BSA-PBS and allowed to incubate for 2 hours at 37° C. Plates are washed as described above. After incubation with 4-nitrophenyl phosphate (1 g/l in diethanolamine buffer, pH 9.8) for 1 to 2 hours at 37° C., the enzymatic reaction is measured spectrophotometrically at 405 nm using a spectrophotometer. The results are expressed as an EC50, which is the concentration of the compound of the invention required to achieve 50% inhibition.

Protein sequences, listed by entry. Tags and fused reporters are not part of them. Residues count along the entry.
UniProt P30405, 30-207: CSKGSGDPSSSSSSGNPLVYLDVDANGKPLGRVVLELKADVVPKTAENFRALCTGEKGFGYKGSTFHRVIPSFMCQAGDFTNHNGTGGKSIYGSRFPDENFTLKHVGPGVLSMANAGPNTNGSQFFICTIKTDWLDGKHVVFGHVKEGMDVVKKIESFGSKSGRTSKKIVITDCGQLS
UniProt P62937, whole entry: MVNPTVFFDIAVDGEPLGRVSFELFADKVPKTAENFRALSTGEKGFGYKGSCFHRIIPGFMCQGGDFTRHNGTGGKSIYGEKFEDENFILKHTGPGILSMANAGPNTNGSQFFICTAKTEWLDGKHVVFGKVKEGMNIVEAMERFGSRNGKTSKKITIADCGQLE

cyclophilin A = cyclophilin A (Homo sapiens, UniProt P62937); assay: Cyclophilin binding competitive ELISA (cyclophilin A); conditions: human recombinant cyclophilin, read-out: EC50, concentration required to achieve 50% inhibition, against cyclophilin A
Experimental: as §1, §2

Structure (SMILES) | EC50 [1] [nM] | EC50 (cyclophilin D) [nM] | EC50 (cyclophilin A) [nM]
CC=CCC(C)C(O)C1C(=O)NC(CC)C(=O)N(C)C(SCCN(C)C)C(=O)N(C)C(CC(C)C)C(=O)N(Cc2ccccc2)C(C(C)C)C(=O)N(C)C(CC(C)C)C(=O)NC(C)C(=O)NC(C)C(=O)N(C)C(CC(C)C)C(=O)N(C)C(CC(C)C)C(=O)N(C)C(C(C)C)C(=O)N1C [Compound 1, [(R)-2-(N,N-Dimethylamino)ethylthio-Sar]^3-(N-benzyl)-Val^5-cyclosporine A] | < 10000 | < 600 | < 600
CC=CCC(C)C(O)C1C(=O)NC(CC)C(=O)N(C)C(SCC2(N(C)C)CCC2)C(=O)N(C)C(CC(C)C)C(=O)N(Cc2ccccc2)C(C(C)C)C(=O)N(C)C(CC(C)C)C(=O)NC(C)C(=O)NC(C)C(=O)N(C)C(CC(C)C)C(=O)N(C)C(CC(C)C)C(=O)N(C)C(C(C)C)C(=O)N1C [Compound 2, [(R)-(1-N,N-Dimethylamino-cyclobutylmethylthio)-Sar]^3-(N-Benzyl)-Val^5-cyclosporine A] | > 10000 |  | 
CC=CCC(C)C(O)C1C(=O)NC(CC)C(=O)N(C)C(SCCN(C)C)C(=O)N(C)C(CC(C)C)C(=O)N(Cc2ccc(C(C)C)cc2)C(C(C)C)C(=O)N(C)C(CC(C)C)C(=O)NC(C)C(=O)NC(C)C(=O)N(C)C(CC(C)C)C(=O)N(C)C(CC(C)C)C(=O)N(C)C(C(C)C)C(=O)N1C [Compound 3, [(R)-2-(N,N-Dimethylamino)ethylthio-Sar]^3-(4-isopropylbenzyl)-Val^5-cyclosporine A] | > 10000 | < 600 | < 600
C/C=C/C[C@@H](C)[C@@H](O)[C@H]1C(=O)N[C@@H](CC)C(=O)N(C)C(SC)C(=O)N(C)[C@@H](CC(C)C)C(=O)N(Cc2ccccc2)[C@@H](C(C)C)C(=O)N(C)[C@@H](CC(C)C)C(=O)N[C@@H](C)C(=O)N[C@H](C)C(=O)N(C)[C@@H](CC(C)C)C(=O)N(C)[C@@H](CC(C)C)C(=O)N(C)[C@@H](C(C)C)C(=O)N1C (stereo partly shown) [Compound 4, [Methylthio-Sar]^3-(N-benzyl)-Val^5-cyclosporine A] | > 10000 |  | < 600
CC=CCC(C)C(O)C1C(=O)NC(CC)C(=O)N(C)C(SCCC)C(=O)N(C)C(CC(C)C)C(=O)N(Cc2ccccc2)C(C(C)C)C(=O)N(C)C(CC(C)C)C(=O)NC(C)C(=O)NC(C)C(=O)N(C)C(CC(C)C)C(=O)N(C)C(CC(C)C)C(=O)N(C)C(C(C)C)C(=O)N1C (stereo not shown) [Compound 5, [n-Propylthio-Sar]^3-(N-benzyl)-Val^5-cyclosporine A] | > 10000 |  | 
CC=CCC(C)C(O)C1C(=O)NC(CC)C(=O)N(C)C(OC)C(=O)N(C)C(CC(C)C)C(=O)N(Cc2ccccc2)C(C(C)C)C(=O)N(C)C(CC(C)C)C(=O)NC(C)C(=O)NC(C)C(=O)N(C)C(CC(C)C)C(=O)N(C)C(CC(C)C)C(=O)N(C)C(C(C)C)C(=O)N1C (stereo not shown) [Compound 6, [Methoxy-Sar]^3-(N-benzyl)-Val^5-cyclosporine A] | < 10000 | < 600 | < 600
CC=CCC(C)C(O)C1C(=O)NC(CC)C(=O)N(C)C(OC)C(=O)N(C)C(CC(C)C)C(=O)N(Cc2cccc(C(F)(F)F)c2)C(C(C)C)C(=O)N(C)C(CC(C)C)C(=O)NC(C)C(=O)NC(C)C(=O)N(C)C(CC(C)C)C(=O)N(C)C(CC(C)C)C(=O)N(C)C(C(C)C)C(=O)N1C (stereo not shown) [Compound 7, [Methoxy-Sar]^3-(3-trifluoromethylbenzyl)-Val^5-cyclosporine A] | < 10000 | < 600 | < 600
C=CCN1C(=O)C(CC(C)C)N(C)C(=O)C(OC)N(C)C(=O)C(CC)NC(=O)C(C(O)C(C)CC=CC)N(C)C(=O)C(C(C)C)N(C)C(=O)C(CC(C)C)N(C)C(=O)C(CC(C)C)N(C)C(=O)C(C)NC(=O)C(C)NC(=O)C(CC(C)C)N(C)C(=O)C1C(C)C (stereo not shown) [Compound 8, [Methoxy-Sar]^3-(N-allyl)-Val^5-cyclosporine A] | < 10000 | < 600 | < 600
CC=CCC(C)C(O)C1C(=O)NC(CC)C(=O)N(C)C(OC)C(=O)N(C)C(CC(C)C)C(=O)N(CC=CC)C(C(C)C)C(=O)N(C)C(CC(C)C)C(=O)NC(C)C(=O)NC(C)C(=O)N(C)C(CC(C)C)C(=O)N(C)C(CC(C)C)C(=O)N(C)C(C(C)C)C(=O)N1C (stereo not shown) [Compound 9, [Methoxy-Sar]^3-(N-but-2-enyl)-Val^5-cyclosporine A] | < 10000 | < 600 | < 600
CC=CCC(C)C(O)C1C(=O)NC(CC)C(=O)N(C)C(OC)C(=O)N(C)C(CC(C)C)C(=O)N(CC=C(C)C)C(C(C)C)C(=O)N(C)C(CC(C)C)C(=O)NC(C)C(=O)NC(C)C(=O)N(C)C(CC(C)C)C(=O)N(C)C(CC(C)C)C(=O)N(C)C(C(C)C)C(=O)N1C (stereo not shown) [Compound 10, [Methoxy-Sar]^3-(N-3-methyl-but-2-enyl)-Val^5-cyclosporine A] | < 10000 | < 600 | < 600
CC=CCC(C)C(O)C1C(=O)NC(CC)C(=O)N(C)C(OC)C(=O)N(C)C(CC(C)C)C(=O)N(CC=CCOCc2ccccc2)C(C(C)C)C(=O)N(C)C(CC(C)C)C(=O)NC(C)C(=O)NC(C)C(=O)N(C)C(CC(C)C)C(=O)N(C)C(CC(C)C)C(=O)N(C)C(C(C)C)C(=O)N1C (stereo not drawn) [Compound 11, [Methoxy-Sar]^3-N-(trans-4-benzyloxy-but-2-enyl)-Val^5-cyclosporine A] | < 10000 | < 600 | < 600
CC=CCC(C)C(O)C1C(=O)NC(CC)C(=O)N(C)C(SC)C(=O)N(C)C(CC(C)C)C(=O)N(CC=CCOCc2ccc(OC)c(OC)c2)C(C(C)C)C(=O)N(C)C(CC(C)C)C(=O)NC(C)C(=O)NC(C)C(=O)N(C)C(CC(C)C)C(=O)N(C)C(CC(C)C)C(=O)N(C)C(C(C)C)C(=O)N1C (stereo not drawn) [Compound 12, [Methylthio-Sar]^3-N-[trans-4-(3′,4′-dimethoxy)benzyloxy-but-2-enyl]-Val^5-cyclosporine A] | > 1500 | < 600 | < 600
CC=CCC(C)C(O)C1C(=O)NC(CC)C(=O)N(C)C(OC)C(=O)N(C)C(CC(C)C)C(=O)N(CC=CCOCc2ccc(OC)c(OC)c2)C(C(C)C)C(=O)N(C)C(CC(C)C)C(=O)NC(C)C(=O)NC(C)C(=O)N(C)C(CC(C)C)C(=O)N(C)C(CC(C)C)C(=O)N(C)C(C(C)C)C(=O)N1C (stereo not drawn) [Compound 13, [Methoxy-Sar]^3-N-[trans-4-(3′,4′-dimethoxy)benzyloxy-but-2-enyl]-Val^5-cyclosporine A] |  |  | < 600
CC=CCC(C)C(O)C1C(=O)NC(CC)C(=O)N(C)C(SC)C(=O)N(C)C(CC(C)C)C(=O)N(CC=CCO)C(C(C)C)C(=O)N(C)C(CC(C)C)C(=O)NC(C)C(=O)NC(C)C(=O)N(C)C(CC(C)C)C(=O)N(C)C(CC(C)C)C(=O)N(C)C(C(C)C)C(=O)N1C (stereo not drawn) [Compound 14, [Methylthio-Sar]^3-N-[trans-4-hydroxy-but-2-enyl]-Val^5-cyclosporine A] | < 10000 | < 600 | < 600
CC=CCC(C)C(O)C1C(=O)NC(CC)C(=O)N(C)C(OC)C(=O)N(C)C(CC(C)C)C(=O)N(CC=CCO)C(C(C)C)C(=O)N(C)C(CC(C)C)C(=O)NC(C)C(=O)NC(C)C(=O)N(C)C(CC(C)C)C(=O)N(C)C(CC(C)C)C(=O)N(C)C(C(C)C)C(=O)N1C (stereo not drawn) [Compound 15, [Methoxy-Sar]^3-N-[trans-4-hydroxy-but-2-enyl]-Val^5-cyclosporine A] |  | < 600 | < 600
CC=CCC(C)C(O)C1C(=O)NC(CC)C(=O)N(C)C(SC)C(=O)N(C)C(CC(C)C)C(=O)N(CC=CCN(C)C)C(C(C)C)C(=O)N(C)C(CC(C)C)C(=O)NC(C)C(=O)NC(C)C(=O)N(C)C(CC(C)C)C(=O)N(C)C(CC(C)C)C(=O)N(C)C(C(C)C)C(=O)N1C (stereo not drawn) [Compound 16, [Methylthio-Sar]^3-N-[trans-4-dimethylamino-but-2-enyl]-Val^5-cyclosporine A] | < 10000 | < 600 | < 600
CC=CCC(C)C(O)C1C(=O)NC(CC)C(=O)N(C)C(OC)C(=O)N(C)C(CC(C)C)C(=O)N(CC=CCN(C)C)C(C(C)C)C(=O)N(C)C(CC(C)C)C(=O)NC(C)C(=O)NC(C)C(=O)N(C)C(CC(C)C)C(=O)N(C)C(CC(C)C)C(=O)N(C)C(C(C)C)C(=O)N1C (stereo not drawn) [Compound 17, [Methoxy-Sar]^3-N-[trans-4-dimethylamino-but-2-enyl]-Val^5-cyclosporine A] | > 1500 | < 600 | < 600

— patent publication US9090671B2, “Macrocyclic peptides” (Scynexis, Inc., priority 2008, dated 2015)
